Test results reported in the supplement of paper PMC3334620.
Over roughly 33,000 sequences, “E-score (-0.5 to 0.5)” has its median near -0.0034; the highest 2% begin near 0.25. Some of the results follow.

Biological target: T1, Yap3 (UniProt P38749)
T1 sequence: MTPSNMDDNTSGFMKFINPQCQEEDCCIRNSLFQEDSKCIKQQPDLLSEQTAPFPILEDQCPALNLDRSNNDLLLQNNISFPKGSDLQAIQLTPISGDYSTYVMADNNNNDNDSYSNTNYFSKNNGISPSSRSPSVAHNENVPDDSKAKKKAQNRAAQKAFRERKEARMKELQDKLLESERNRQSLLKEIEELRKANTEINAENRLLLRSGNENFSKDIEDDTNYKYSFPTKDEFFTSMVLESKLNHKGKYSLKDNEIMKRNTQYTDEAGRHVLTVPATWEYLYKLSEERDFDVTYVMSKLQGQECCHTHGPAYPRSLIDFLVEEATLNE
Experiment: PBM E-score (8-mer binding enrichment) (E-score (-0.5 to 0.5)); higher = stronger / more preferred TF binding
Conditions: protein concentration: 100 nM; construct: GST-full length
In short: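 GST-tagged yeast TFs (full-length or DNA-binding domain) were made by PURExpress in vitro transcription/translation and applied at about 100-200 nM to universal all-10-mer Agilent arrays. The arrays were made double-stranded by primer extension, on fresh or once-stripped slides. Bound protein was detected with fluorescent anti-GST, and scans were normalised with masliner. Each ungapped eight-base word, pooled with its reverse complement, received an E-score (modified Wilcoxon-Mann-Whitney statistic) from the Universal PBM Analysis Suite.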

Row | Sequence | PBM E-score
1 | AATCTGAG | -0.0276
2 | CTTTAAAA | 0.208
3 | GACTAAGC | 0.0559
4 | GCCTTGCC | -0.125
5 | CAGCTACA | -0.0169
6 | ATCCTACG | 0.0452
7 | CGTGCCGA | -0.0115
8 | AGGGCGTA | -0.0844
9 | GCACCGGC | -0.209
10 | TACAAGTA | 0.177
11 | AAACATAA | 0.202
12 | CCGGTCGA | -0.307
13 | TAAACATA | 0.19
14 | CCCACTTC | 0.00309
15 | ATATCCAG | 0.0361
16 | ATCTACAT | 0.151
17 | GGGTACGA | -0.00652
18 | ATAATCCA | 0.212
19 | ATAGGGAG | -0.119
20 | ACTAGTCT | -0.143
21 | AATGGAGA | 0.0536
22 | AGGCAAAG | 0.0426

Row | Sequence | PBM E-score
23 | ATTTGTTG | 0.147
24 | GACCCTGC | -0.234
25 | AGGGATAA | 0.069
26 | GCCGCCGA | 0.187
27 | ATTCACGA | 0.149
28 | CGGTAGGA | -0.174
29 | ACGACGAG | -0.0147
30 | AAGCTATT | -0.0651
31 | CTGTTATA | 0.0877
32 | AAACGGAG | 0.0915
33 | CAACTTAG | 0.228
34 | GATTGTAA | 0.125
35 | ACAAGTTG | 0.0961
36 | GACGGTCC | -0.184
37 | GATGTTCA | -0.179
38 | CCTGCGTC | -0.24
39 | CCGGAGCG | -0.252
40 | AACAAACA | 0.214
41 | AAATTTAG | 0.156
42 | GCCAACGA | -0.0194
43 | CAACGGGC | 0.0706
44 | ATTAGAAC | 0.253

Laid out differently: results already given.
ATTCACGA
  PBM E-score: 0.149
CGGTAGGA
  PBM E-score: -0.174

Taken from above:
CTTTAAAA | PBM E-score: 0.208
GACCCTGC | PBM E-score: -0.234
AATCTGAG | PBM E-score: -0.0276

Remaining list, next part:

Row | Sequence | PBM E-score
45 | ACATGAGA | 0.0391
46 | AAACCCCT | -0.258
47 | AGCACGCA | -0.219
48 | TCTGTTAA | 0.145
49 | ATGGGCGC | -0.252
50 | GGTAAGCA | 0.113
51 | ACGGGTTG | -0.207
52 | GCACACCC | -0.192
53 | CTACGCCA | -0.251
54 | CCGAAGTC | -0.0214
55 | TGCATCCA | 0.127
56 | TCAGGGCA | -0.136
57 | ACTACGCT | 0.00341
58 | CGGAAGAA | 0.102
59 | GCCCTTGA | -0.123
60 | CTACTGCC | -0.0886
61 | CAACCTCA | -0.0535
62 | ACGCTAGT | -0.0174
63 | CGGTGGCC | -0.208
64 | CGGCAGGA | -0.337
65 | GAGGCTAA | 0.0305
66 | AAAAACTG | 0.0375

Row | Sequence | PBM E-score
67 | CCCGCAAC | -0.0592
68 | TAGATGAA | 0.082
69 | CAAATTGA | 0.0304
70 | AAGGTGAG | 0.065
71 | AAGCCTCT | -0.159
72 | AAGCTGCA | 0.0959
73 | TACGAACA | 0.119
74 | GCGCGACA | 0.0138
75 | GCACCAAC | -0.115
76 | CAGAGCTC | -0.13
77 | ACGGGCTC | -0.383
78 | GAACCGTC | -0.0728
79 | AGGCACAA | -0.0252
80 | AGAGATCT | -0.145
81 | ACGGTTCA | -0.234
82 | GAGTTACC | -0.109
83 | AGACGCGG | -0.0379
84 | GAGGTGCC | -0.132
85 | GGGAATGA | 0.225
86 | ATCTATTG | -0.108
